## Results of single-concentration screens

Results are given as percent effect. The controls that fix the scale are not given in the record; negative values are as filed. Compounds were drawn at random from those tested, without regard to their results.

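Assay of Toxoplasma gondii numbers, read through their beta-galactosidase reporter with a colour substrate. Tested at 10 µM. The record gives no direction; the compounds picked for IC50 retests had high values, so higher reads as fewer parasites. Of about 67,000 compounds tested this way, about 260 (0.38%) reached 50% or more in at least one test.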

* c1cc(-c2cnc(NC3CC3)nc2[C@@H]2CCCO2)ccn1 | -2.713%
* CCC(C)(NCC(N)=O)c1nccs1 (configuration not stated) | 10.95%
* O=C1CCC[C@]2(CN(S(=O)(=O)N3CCOCC3)C[C@H]2c2cccnc2)N1 | -13.7%
* CC1CCC(NC(=O)CNC2(c3cccc(Br)c3)CCOCC2)CC1 (configuration not stated) | 14.72%
* Cc1nc(C2CCCN2Cc2cc(Cl)c3c(c2)OCCO3)no1 (configuration not stated) | -4.406%
* O=C(c1cnn[nH]1)N(Cc1ccncc1)CC1CCCO1 (configuration not stated) | 4.679%
* Cc1ccc(NC(=O)NCCc2cnn(C)c2)c(N(C)C)n1 | 4.314%
* Cc1nnc(CN(C)CCc2nc(-c3cccc(Cl)c3)no2)n1C | -1.529%
* COc1ncc(-c2ccc(O)cc2)c(OC)n1 | -20.8%
* Cn1nnc2c1CCN(CC1CC1)C2COCc1ccccc1.O=C(O)C(F)(F)F (configuration not stated) | -2.607%
* [H][C@@]12C[C@H](C(=O)NC(C)C)C[C@@]1([H])OCCN2 | 6.423%
* CCC(=O)N1CCc2nc(N3CCOCC3)nc(N(C)C)c2CC1 | 1.456%
* CN(C)CC(=O)N1CCN(C(=O)c2cccc3[nH]ncc23)CC1 | 0.753%
* CS(=O)(=O)c1ccccc1-n1cc(NC(=O)CC(F)(F)F)cn1 | 26.35%
* O=C(COc1coc(CN2CCOCC2)cc1=O)Nc1ccccc1F | -8.17%
* Cc1ccc(NC(=O)c2cnc(N3CCN(C)CC3)nc2C)cc1C | 16.31%
* Cc1ccccc1-n1ccnc1S(=O)(=O)Cc1nsc(N(C)C)n1 | -4.841%
* [H][C@]12CCN(C(=O)NC(C)C)CC[C@@]1([H])S(=O)(=O)N(Cc1cccc(Cl)c1)C2 | 3.739%
* CC(C)c1cccc(N2CCCC3(CCC(=O)N(C4CC4)C3)C2)n1 (configuration not stated) | 6.497%
* Cc1ccc2nc(CNCCCOc3ccccc3)cc(O)c2c1 | -0.5008%
* Cn1cc(CNCCn2cccn2)c(-c2cccnc2)n1 | -0.7974%
* Cc1cnn(CC(=O)Nc2cc(-n3nnnc3C3CC3)ccc2F)c1 | 3.567%
* O=C(O)C(F)(F)F.O=C(O)C(F)(F)F.c1ccc(OC2COC3(CCN(CC4CC4)CC3)C2)nc1 (configuration not stated) | -2.327%
* CC(C)CCN1Cc2c(C(=O)O)ncn2-c2ccccc2S1(=O)=O | -1.56%
* CN(C)c1cc(C2CCCN2C(=O)c2noc3c2CCCC3)ccn1 (configuration not stated) | -7.181%
* Cc1ncsc1CN1C[C@@H](O)[C@](O)(CNC(=O)c2ccccn2)C1 | -0.6653%
* O=C(NC1CCCN(CCc2ccccc2)C1)c1ccccn1 (configuration not stated) | -1.198%
* Cc1ccc(OCCC(=O)N(C)CCC#N)cc1C | 3.255%
* CCc1nc(CN2CCCN(C(=O)c3cn[nH]c3C)CC2)cs1 | 8.305%

Repeated from the top, 3 entries:

With c1cc(-c2cnc(NC3CC3)nc2[C@@H]2CCCO2)ccn1 the screen gave -2.713%.
With CCC(C)(NCC(N)=O)c1nccs1 (configuration not stated) the screen gave 10.95%.
With O=C1CCC[C@]2(CN(S(=O)(=O)N3CCOCC3)C[C@H]2c2cccnc2)N1 the screen gave -13.7%.

Source: ChEMBL document CHEMBL3988442, “University of Dundee, Small-Polar-MMV Screening Library” (2021).